For the test, the system named is AKR/Lw mice, AKR lymphoma ip, median survival T/C. The experiment in a line: NCI In Vivo Anticancer Drug Screen. Data for tumor model Lymphoma AKR (Transplanted) (intraperitoneal) in AKR/Lw mice. The following applies: T/C endpoint: median survival time, higher T/C = longer survival. The method, then:
The antitumor activity of compounds was measured in mice bearing transplantable tumors. Survival or tumor size were measured and the results are expressed as the measurement made in the treated group (T) divided by the measurement made in the vehicle treated control group (C). The tumor model used in this assay is Lymphoma AKR (Transplanted) (intraperitoneal) in AKR/Lw mice

Where [1] appears, read: dose: 50.0 mg/kg/injection, schedule: Q01DX001 (ip), vehicle: Klucel (hydroxypropylcellulose) (HPC).
[2] abbreviates: dose: 200.0 mg/kg/injection, schedule: Q01DX009 (ip), vehicle: Klucel (hydroxypropylcellulose) (HPC).
Setting [3] is: dose: 200.0 mg/kg/injection, schedule: Q04DX003 (ip), vehicle: Klucel (hydroxypropylcellulose) (HPC).
The mark [4] stands for this setting: dose: 400.0 mg/kg/injection, schedule: Q04DX003 (ip), vehicle: Klucel (hydroxypropylcellulose) (HPC).

The values that follow come from PubChem BioAssay AID190 (DTP/NCI, 2004).

Molecules are shown by their SMILES. The list does not hold the whole screen: it is rich in T/C values a quarter to a half above the control, in often repeated tests (any T/C) and in doses without a T/C. Further doses and runs are listed elsewhere. T/C is the treated group as % of the vehicle group. Some entries give survivors of the animals treated and no T/C: the source files T/C as zero there, which appears to mark a toxic dose or a test without result, not a measured value. Some doses without a T/C left all or most animals alive at the check, yet need not have been tolerated: survival well below the control is almost never listed, so the zero probably covers shortened survival too. Counts of survivors are from the toxicity check (mostly the fifth day) where no day follows; animals may have died later. Schedule codes are those of the source, taken here to give the interval after Q, in days (D) or hours (H), and the number of doses after X. Some entries hold several experiments; the results are listed from low to high. For survival time, this PubChem deposit counts one and a half times the control or more as active, and values a quarter to a half above the control carry no call in these data; other NCI protocols may use other cut-offs. Some T/C values are followed by the survivors on the day toxicity was checked, most often the fifth; without a count, all were alive then. Brackets with × give the number of equal values in this list.

`S=c1nc[nH]c2nc[nH]c12`: the survivor count is on record as 9 of 10 under setting [1]; 10 of 10 (dose: 65.0 mg/kg/injection, schedule: Q04DX003 (ip), vehicle: Klucel (hydroxypropylcellulose) (HPC)); 10 of 10 (dose: 75.0 mg/kg/injection, schedule: Q01DX009 (ip), vehicle: saline); 9 of 10 (dose: 100.0 mg/kg/injection, schedule: Q01DX015 (ip), vehicle: Klucel (hydroxypropylcellulose) (HPC)); 10 of 10 (dose: 120.0 mg/kg/injection, schedule: Q01DX009 (ip), vehicle: saline); 10 of 10 (dose: 125.0 mg/kg/injection, schedule: Q04DX003 (ip), vehicle: Klucel (hydroxypropylcellulose) (HPC)). Further, the survivor count by setting is: (dose: 135.0 mg/kg/injection, schedule: Q04DX003 (ip), vehicle: Klucel (hydroxypropylcellulose) (HPC)) 10 of 10; (dose: 150.0 mg/kg/injection, schedule: Q01DX001 (ip), vehicle: Klucel (hydroxypropylcellulose) (HPC)) 10 of 10; (dose: 150.0 mg/kg/injection, schedule: Q01DX009 (ip), vehicle: saline) 9 of 10; (dose: 150.0 mg/kg/injection, schedule: Q04DX003 (ip), vehicle: Klucel (hydroxypropylcellulose) (HPC)) 10 of 10; (dose: 175.0 mg/kg/injection, schedule: Q01DX001 (ip), vehicle: Klucel (hydroxypropylcellulose) (HPC)) 9 of 10; under setting [2], 8 of 10. Besides, the survivor count is 5 of 10 (dose: 200.0 mg/kg/injection, schedule: Q01DX015 (ip), vehicle: Klucel (hydroxypropylcellulose) (HPC)); 10 of 10 under setting [3]; 10 of 10 (dose: 200.0 mg/kg/injection, schedule: Q04DX003 (ip), vehicle: saline); 10 of 10 (dose: 300.0 mg/kg/injection, schedule: Q01DX001 (ip), vehicle: Klucel (hydroxypropylcellulose) (HPC)); 10 of 10 (dose: 300.0 mg/kg/injection, schedule: Q01DX001 (ip), vehicle: saline); 9 of 10 (dose: 400.0 mg/kg/injection, schedule: Q01DX001 (ip), vehicle: Klucel (hydroxypropylcellulose) (HPC)). Besides, the survivor count is on record as 10 of 10 (dose: 400.0 mg/kg/injection, schedule: Q01DX015 (ip), vehicle: Klucel (hydroxypropylcellulose) (HPC)) and 8 of 10 under setting [4]. Further, the T/C was 130 % of control (dose: 100.0 mg/kg/injection, schedule: Q01DX009 (ip), vehicle: saline); 128 % of control (dose: 150.0 mg/kg/injection, schedule: Q01DX001 (ip), vehicle: saline); 94, 94 [8 of 10 alive], 118 % of control (2×) (dose: 200.0 mg/kg/injection, schedule: Q01DX001 (ip), vehicle: Klucel (hydroxypropylcellulose) (HPC)).
Take `COc1ccc2cc1Oc1ccc(cc1)C[C@H]1c3cc(c(OC)cc3CCN1C)Oc1c(OC)c(OC)cc3c1[C@H](C2)N(C)CC3`: the survivor count is listed as 10 of 10 (dose: 15.0 mg/kg/injection, schedule: Q01DX009 (ip), vehicle: saline); 10 of 10 (dose: 25.0 mg/kg/injection, schedule: Q04DX003 (ip), vehicle: saline); 10 of 10 (dose: 30.0 mg/kg/injection, schedule: Q01DX009 (ip), vehicle: saline); 10 of 10 (dose: 100.0 mg/kg/injection, schedule: Q01DX009 (ip), vehicle: Klucel (hydroxypropylcellulose) (HPC)); 10 of 10 (dose: 100.0 mg/kg/injection, schedule: Q04DX003 (ip), vehicle: Klucel (hydroxypropylcellulose) (HPC)); 8 of 10 under setting [2]. For the same molecule, the survivor count reads like this: under setting [3], 9 of 10; (dose: 400.0 mg/kg/injection, schedule: Q01DX009 (ip), vehicle: Klucel (hydroxypropylcellulose) (HPC)) 9 of 10; (dose: 400.0 mg/kg/injection, schedule: Q01DX009 (ip), vehicle: saline) 8 of 10 and 9 of 10; under setting [4], 9 of 10 and 10 of 10. Moreover, the T/C runs as follows: under setting [1], 138 % of control; (dose: 100.0 mg/kg/injection, schedule: Q01DX001 (ip), vehicle: saline) 95, 100 (2×), 127 % of control.
